According to the supplement of paper PMC6411743:
± gives the standard deviation of the averaged measurements. This is a selection; strong and weak results do not stand in their true shares. Small differences around the control level are noise.

The chains behind the UniProt entries cited, without tags or fusion partners. Where a name states a change or a piece, a line headed by the entry shows the natural chain unless it says otherwise.
UniProt O75718: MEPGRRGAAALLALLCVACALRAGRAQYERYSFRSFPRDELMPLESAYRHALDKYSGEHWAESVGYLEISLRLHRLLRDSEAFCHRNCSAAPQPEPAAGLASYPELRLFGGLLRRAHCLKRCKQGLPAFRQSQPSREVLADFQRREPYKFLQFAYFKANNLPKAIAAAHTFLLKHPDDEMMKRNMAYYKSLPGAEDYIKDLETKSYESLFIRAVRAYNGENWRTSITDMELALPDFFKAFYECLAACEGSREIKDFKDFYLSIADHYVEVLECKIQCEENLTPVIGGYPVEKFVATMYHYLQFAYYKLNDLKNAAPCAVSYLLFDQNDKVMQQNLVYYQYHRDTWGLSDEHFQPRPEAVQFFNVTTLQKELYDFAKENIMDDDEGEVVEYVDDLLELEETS
UniProt O15372, whole entry: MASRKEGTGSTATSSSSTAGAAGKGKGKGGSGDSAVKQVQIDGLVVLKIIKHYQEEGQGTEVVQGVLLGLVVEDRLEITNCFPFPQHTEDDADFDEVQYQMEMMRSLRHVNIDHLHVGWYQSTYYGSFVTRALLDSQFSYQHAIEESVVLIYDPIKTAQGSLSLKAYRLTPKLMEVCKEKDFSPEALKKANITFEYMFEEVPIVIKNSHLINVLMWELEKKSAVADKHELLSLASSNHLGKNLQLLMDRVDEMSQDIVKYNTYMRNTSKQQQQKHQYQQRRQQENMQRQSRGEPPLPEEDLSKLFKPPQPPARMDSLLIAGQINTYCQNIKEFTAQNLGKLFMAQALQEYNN
UniProt Q92664: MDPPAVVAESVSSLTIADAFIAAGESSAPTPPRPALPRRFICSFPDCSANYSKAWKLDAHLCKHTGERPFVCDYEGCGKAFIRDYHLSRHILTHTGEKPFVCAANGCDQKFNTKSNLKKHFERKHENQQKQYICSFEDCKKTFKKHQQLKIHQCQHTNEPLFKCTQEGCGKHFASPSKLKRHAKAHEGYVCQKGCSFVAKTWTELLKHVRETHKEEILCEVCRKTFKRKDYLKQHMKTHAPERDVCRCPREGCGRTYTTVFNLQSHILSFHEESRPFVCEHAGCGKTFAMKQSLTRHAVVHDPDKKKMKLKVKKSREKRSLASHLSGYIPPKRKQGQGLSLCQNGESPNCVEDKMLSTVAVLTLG
UniProt Q9NQG6: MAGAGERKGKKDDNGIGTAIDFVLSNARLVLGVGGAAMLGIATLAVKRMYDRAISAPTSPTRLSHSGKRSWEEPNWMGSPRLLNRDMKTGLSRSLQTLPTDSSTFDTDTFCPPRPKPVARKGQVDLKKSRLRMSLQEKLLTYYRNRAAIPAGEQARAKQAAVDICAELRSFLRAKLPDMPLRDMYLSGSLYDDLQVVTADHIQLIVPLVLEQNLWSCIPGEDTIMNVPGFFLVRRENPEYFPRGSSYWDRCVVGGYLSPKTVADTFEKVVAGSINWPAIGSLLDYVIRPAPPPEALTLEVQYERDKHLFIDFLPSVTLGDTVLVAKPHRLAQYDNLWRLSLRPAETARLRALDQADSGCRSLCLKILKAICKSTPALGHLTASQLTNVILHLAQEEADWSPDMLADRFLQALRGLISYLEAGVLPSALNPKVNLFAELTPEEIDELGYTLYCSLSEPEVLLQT
UniProt Q16637, whole entry, looked up: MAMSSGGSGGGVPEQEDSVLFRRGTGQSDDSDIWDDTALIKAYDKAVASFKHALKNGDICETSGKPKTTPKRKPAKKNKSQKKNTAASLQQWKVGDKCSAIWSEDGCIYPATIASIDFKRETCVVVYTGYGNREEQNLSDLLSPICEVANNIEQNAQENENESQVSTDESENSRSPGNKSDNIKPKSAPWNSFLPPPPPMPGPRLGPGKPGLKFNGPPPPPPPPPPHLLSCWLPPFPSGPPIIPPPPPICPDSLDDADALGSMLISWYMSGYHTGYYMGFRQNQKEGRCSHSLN
UniProt O14730: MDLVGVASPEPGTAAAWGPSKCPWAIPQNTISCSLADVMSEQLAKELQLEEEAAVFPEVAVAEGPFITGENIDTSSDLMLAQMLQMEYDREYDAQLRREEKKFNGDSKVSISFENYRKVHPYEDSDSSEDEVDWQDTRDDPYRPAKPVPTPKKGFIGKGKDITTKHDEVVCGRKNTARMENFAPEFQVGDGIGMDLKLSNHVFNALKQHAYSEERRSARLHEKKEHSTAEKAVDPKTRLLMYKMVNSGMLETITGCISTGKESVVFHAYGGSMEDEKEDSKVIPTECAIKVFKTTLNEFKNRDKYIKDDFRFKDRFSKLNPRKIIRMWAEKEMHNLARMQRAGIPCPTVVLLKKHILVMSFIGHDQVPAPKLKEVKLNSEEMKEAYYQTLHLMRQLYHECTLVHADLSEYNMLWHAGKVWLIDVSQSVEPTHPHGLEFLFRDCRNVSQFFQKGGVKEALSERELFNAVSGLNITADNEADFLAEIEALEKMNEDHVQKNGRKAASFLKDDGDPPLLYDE
UniProt Q93045: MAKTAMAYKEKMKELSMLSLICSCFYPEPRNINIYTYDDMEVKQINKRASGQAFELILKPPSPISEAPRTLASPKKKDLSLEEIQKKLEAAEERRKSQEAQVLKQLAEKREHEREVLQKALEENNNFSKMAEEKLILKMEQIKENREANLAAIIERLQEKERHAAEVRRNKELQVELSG
UniProt P01040: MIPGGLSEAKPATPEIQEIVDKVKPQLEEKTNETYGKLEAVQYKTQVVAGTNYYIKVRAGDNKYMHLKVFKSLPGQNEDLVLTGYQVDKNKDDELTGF
UniProt A9UHW6: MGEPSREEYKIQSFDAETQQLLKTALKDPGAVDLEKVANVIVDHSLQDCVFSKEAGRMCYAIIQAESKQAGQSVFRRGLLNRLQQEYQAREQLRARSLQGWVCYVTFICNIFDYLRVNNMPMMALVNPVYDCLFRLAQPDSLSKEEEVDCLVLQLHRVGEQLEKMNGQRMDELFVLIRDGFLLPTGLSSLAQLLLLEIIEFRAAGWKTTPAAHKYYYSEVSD
UniProt Q7Z2W4: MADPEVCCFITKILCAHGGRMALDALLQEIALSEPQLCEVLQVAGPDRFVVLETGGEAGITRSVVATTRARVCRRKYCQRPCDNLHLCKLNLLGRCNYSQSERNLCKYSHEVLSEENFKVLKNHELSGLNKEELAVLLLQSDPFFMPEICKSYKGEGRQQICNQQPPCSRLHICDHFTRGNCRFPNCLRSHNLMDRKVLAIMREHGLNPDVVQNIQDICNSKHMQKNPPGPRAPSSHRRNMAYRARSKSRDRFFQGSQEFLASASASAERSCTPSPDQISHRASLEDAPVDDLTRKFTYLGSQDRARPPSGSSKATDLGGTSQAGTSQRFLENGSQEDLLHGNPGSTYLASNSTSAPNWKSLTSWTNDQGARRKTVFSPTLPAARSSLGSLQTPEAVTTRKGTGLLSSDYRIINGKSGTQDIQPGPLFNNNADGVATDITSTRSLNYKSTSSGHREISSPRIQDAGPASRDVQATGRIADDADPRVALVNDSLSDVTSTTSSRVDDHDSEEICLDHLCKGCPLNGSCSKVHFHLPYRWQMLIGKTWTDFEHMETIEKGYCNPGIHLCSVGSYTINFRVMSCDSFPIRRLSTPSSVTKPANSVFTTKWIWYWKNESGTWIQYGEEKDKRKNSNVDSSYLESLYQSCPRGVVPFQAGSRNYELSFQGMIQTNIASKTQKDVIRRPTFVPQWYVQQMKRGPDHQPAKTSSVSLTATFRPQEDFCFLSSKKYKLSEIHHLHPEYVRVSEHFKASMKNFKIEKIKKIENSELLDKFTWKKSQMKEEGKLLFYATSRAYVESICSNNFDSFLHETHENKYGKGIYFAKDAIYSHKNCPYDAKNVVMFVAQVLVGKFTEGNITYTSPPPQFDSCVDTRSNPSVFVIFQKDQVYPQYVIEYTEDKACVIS
UniProt P51610: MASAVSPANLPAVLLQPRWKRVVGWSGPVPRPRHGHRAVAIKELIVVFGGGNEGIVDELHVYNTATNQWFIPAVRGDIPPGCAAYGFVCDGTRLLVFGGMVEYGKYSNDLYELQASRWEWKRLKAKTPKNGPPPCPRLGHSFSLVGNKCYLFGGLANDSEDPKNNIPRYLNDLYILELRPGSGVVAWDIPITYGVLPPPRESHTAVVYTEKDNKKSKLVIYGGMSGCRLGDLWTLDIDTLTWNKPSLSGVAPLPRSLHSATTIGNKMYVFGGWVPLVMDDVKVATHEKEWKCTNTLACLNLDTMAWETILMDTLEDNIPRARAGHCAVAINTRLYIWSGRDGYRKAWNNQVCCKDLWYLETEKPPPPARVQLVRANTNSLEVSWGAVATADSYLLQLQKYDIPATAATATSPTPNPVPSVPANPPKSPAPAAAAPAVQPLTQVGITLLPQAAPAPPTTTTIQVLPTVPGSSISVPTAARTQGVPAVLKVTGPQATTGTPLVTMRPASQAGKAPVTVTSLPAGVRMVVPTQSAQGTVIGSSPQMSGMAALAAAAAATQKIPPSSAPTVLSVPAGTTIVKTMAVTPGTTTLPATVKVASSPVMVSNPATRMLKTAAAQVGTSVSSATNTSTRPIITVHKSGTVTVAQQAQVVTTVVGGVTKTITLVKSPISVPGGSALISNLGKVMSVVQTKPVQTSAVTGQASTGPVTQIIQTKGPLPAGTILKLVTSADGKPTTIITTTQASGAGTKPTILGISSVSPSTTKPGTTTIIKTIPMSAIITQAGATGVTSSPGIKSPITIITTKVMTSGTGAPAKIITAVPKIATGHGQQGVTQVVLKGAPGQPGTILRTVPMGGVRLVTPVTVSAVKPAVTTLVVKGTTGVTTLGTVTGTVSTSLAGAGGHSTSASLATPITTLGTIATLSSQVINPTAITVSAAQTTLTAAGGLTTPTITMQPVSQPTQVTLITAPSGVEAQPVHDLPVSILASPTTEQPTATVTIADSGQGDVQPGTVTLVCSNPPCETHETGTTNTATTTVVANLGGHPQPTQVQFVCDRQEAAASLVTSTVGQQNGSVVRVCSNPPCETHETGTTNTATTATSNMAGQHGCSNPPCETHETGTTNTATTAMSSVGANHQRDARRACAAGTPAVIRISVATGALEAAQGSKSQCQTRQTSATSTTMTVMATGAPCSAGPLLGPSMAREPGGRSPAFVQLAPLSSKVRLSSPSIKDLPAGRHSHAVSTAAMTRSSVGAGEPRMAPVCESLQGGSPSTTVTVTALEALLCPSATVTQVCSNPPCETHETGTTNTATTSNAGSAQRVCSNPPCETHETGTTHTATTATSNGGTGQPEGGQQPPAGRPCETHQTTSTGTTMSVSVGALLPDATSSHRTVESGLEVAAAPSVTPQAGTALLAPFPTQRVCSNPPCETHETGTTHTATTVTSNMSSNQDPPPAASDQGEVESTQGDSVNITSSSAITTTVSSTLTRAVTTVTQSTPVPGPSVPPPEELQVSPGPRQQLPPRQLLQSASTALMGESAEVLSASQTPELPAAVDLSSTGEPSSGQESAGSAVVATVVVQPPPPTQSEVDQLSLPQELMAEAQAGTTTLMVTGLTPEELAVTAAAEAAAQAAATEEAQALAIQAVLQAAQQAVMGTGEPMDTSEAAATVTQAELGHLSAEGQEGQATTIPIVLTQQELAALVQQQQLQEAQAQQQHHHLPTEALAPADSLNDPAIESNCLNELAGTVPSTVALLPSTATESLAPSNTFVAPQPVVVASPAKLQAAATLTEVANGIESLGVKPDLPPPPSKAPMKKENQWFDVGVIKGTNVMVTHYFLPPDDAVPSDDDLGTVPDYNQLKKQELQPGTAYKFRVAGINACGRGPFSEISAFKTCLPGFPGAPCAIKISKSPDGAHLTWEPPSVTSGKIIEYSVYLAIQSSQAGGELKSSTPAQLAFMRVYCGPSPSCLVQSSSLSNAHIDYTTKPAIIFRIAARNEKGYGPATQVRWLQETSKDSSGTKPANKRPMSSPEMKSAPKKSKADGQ
UniProt Q15019: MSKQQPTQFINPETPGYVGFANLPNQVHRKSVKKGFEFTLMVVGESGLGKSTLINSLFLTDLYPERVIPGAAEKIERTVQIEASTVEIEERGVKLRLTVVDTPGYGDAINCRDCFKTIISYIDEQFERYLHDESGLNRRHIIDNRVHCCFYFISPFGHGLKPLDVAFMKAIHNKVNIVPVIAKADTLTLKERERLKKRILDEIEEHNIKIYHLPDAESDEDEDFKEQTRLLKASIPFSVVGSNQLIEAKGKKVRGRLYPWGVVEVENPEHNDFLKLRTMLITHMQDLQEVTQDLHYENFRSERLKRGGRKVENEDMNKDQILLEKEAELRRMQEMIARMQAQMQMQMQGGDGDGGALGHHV
UniProt P63165, whole entry: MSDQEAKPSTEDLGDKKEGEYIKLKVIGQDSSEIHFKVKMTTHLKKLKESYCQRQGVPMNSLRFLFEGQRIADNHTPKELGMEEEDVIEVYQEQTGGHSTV
UniProt A6NIH7: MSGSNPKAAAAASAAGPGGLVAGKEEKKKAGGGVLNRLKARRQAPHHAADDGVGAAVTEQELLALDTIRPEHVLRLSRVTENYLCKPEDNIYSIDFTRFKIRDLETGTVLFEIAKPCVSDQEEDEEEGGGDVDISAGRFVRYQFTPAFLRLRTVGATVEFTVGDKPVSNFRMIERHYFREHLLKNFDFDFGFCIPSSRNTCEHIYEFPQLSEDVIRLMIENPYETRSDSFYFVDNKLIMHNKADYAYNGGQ

Compound: Nc1ncnc2c1ncn2[C@@H]1O[C@H](COP(=O)(O)OP(=O)(O)NP(=O)(O)O)[C@@H](O)[C@H]1O [adenylyl imidodiphosphate]
Test: NP40-soluble protein abundance relative to vehicle (solubility fold change) (ratio); higher = more soluble protein in presence of AMP-PNP
Method in brief: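 Data come from three independent experiments in which Dounce-homogenised Jurkat crude lysate was treated at eight concentrations from 0.1 to 10 mM. Treatment ran 10 min at room temperature and then 3 min at 37 °C, after which 0.8% NP40 and benzonase were added for 60 min at 4 °C before ultracentrifugation. The supernatant underwent TMT labelling and LC-MS/MS, and vsn-normalised intensities were expressed as fold change against the detergent-processed vehicle in each replicate.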

Q: How did the NP40-soluble protein abundance (concentration: 0.1mM) turn out when “C9JP16 and related entries (UniProt O75718)” was run?
A: 1.03 ± 0.029

Q: What about the NP40-soluble protein abundance (concentration: 0.5mM) of the same target?
A: 0.983 ± 0.02

Q: Which NP40-soluble protein abundance (concentration: 0.1mM) does the source give for “B3KS98 and related entries (UniProt O15372)” here?
A: 1.01 ± 0.022

Q: And the NP40-soluble protein abundance (concentration: 0.5mM)?
A: 1.04 ± 0.025

Q: Which results are given for “B7ZBK4 and related entries (UniProt Q92664)”?
A: NP40-soluble protein abundance (concentration: 0.1mM): 1.01 ± 0.046; NP40-soluble protein abundance (concentration: 0.5mM): 0.996 ± 0.051

Q: For “B0QY95 and related entries (UniProt Q9NQG6+B0QY95)”, which NP40-soluble protein abundance (concentration: 0.1mM) is on record?
A: 0.991 ± 0.019

Q: And the NP40-soluble protein abundance (concentration: 0.5mM)?
A: 1.02 ± 0.025

Q: What does the source list for “B4DP61 and related entries (UniProt Q16637+E7EQZ4+B4DP61)”?
A: NP40-soluble protein abundance (concentration: 0.1mM): 1.0139 ± 0.00047; NP40-soluble protein abundance (concentration: 0.5mM): 0.993 ± 0.087

Q: With “B4E1Q4 and related entries (UniProt O14730)” as the target, how does the NP40-soluble protein abundance (concentration: 0.1mM) read?
A: 0.986 ± 0.038

Q: What about the NP40-soluble protein abundance (concentration: 0.5mM) of the same target?
A: 1.01 ± 0.023

Q: For “B4DK77 and related entries (UniProt Q9H6K4)”, which NP40-soluble protein abundance (concentration: 0.1mM) is on record?
A: 0.992 ± 0.04

Q: What about the NP40-soluble protein abundance (concentration: 0.5mM) of the same target?
A: 1.03 ± 0.038

Q: Which NP40-soluble protein abundance (concentration: 0.1mM) does the source give for “D6RB01 and related entries (UniProt Q9Y6X4)” here?
A: 0.998 ± 0.037

Q: What about the NP40-soluble protein abundance (concentration: 0.5mM) of the same target?
A: 1.03 ± 0.044

Q: Which results are given for “E5RGX5 and related entries (UniProt Q93045)”?
A: NP40-soluble protein abundance (concentration: 0.1mM): 1.01 ± 0.066; NP40-soluble protein abundance (concentration: 0.5mM): 0.981 ± 0.059

Q: How did the NP40-soluble protein abundance (concentration: 0.1mM) turn out when “E3W994 and related entries (UniProt O75122)” was run?
A: 0.993 ± 0.055

Q: What about the NP40-soluble protein abundance (concentration: 0.5mM) of the same target?
A: 0.998 ± 0.026

Q: Which NP40-soluble protein abundance (concentration: 0.1mM) does the source give for “C9J0E4 and related entries (UniProt P01040)” here?
A: 0.986 ± 0.015

Q: And the NP40-soluble protein abundance (concentration: 0.5mM)?
A: 1.07 ± 0.096

Q: “E5RGT2 and related entries (UniProt Q96MH6)” was tested. Which NP40-soluble protein abundance (concentration: 0.1mM) did it give?
A: 1.01 ± 0.056

Q: What about the NP40-soluble protein abundance (concentration: 0.5mM) of the same target?
A: 1.01 ± 0.039

Q: Which results are given for MIF4GD (UniProt A9UHW6)?
A: NP40-soluble protein abundance (concentration: 0.1mM): 0.992 ± 0.044; NP40-soluble protein abundance (concentration: 0.5mM): 0.988 ± 0.042

Q: “C9JLB7 and related entries (UniProt Q96HP4)” was tested. Which NP40-soluble protein abundance (concentration: 0.1mM) did it give?
A: 0.999 ± 0.044

Q: And the NP40-soluble protein abundance (concentration: 0.5mM)?
A: 1 ± 0.1

Q: Which NP40-soluble protein abundance (concentration: 0.1mM) does the source give for “B4DQT1 and related entries (UniProt Q7L5Y9)” here?
A: 1 ± 0.021

Q: What about the NP40-soluble protein abundance (concentration: 0.5mM) of the same target?
A: 0.974 ± 0.023

Q: Which results are given for “C9J6P4 and related entries (UniProt Q7Z2W4)”?
A: NP40-soluble protein abundance (concentration: 0.1mM): 1.03 ± 0.015; NP40-soluble protein abundance (concentration: 0.5mM): 1.05 ± 0.023

Q: How did the NP40-soluble protein abundance (concentration: 0.1mM) turn out when “D3YTB5 and related entries (UniProt P51617)” was run?
A: 1.02 ± 0.02

Q: What about the NP40-soluble protein abundance (concentration: 0.5mM) of the same target?
A: 1.02 ± 0.036

Q: What does the source list for B7Z5R0 (UniProt Q9BV97)?
A: NP40-soluble protein abundance (concentration: 0.1mM): 0.994 ± 0.031; NP40-soluble protein abundance (concentration: 0.5mM): 1.01 ± 0.031

Q: With “B8ZZU6 and related entries (UniProt P15336)” as the target, how does the NP40-soluble protein abundance (concentration: 0.1mM) read?
A: 1.01 ± 0.02

Q: What about the NP40-soluble protein abundance (concentration: 0.5mM) of the same target?
A: 0.998 ± 0.051

Q: How did the NP40-soluble protein abundance (concentration: 0.1mM) turn out when “A6NEM2 and related entries (UniProt P51610)” was run?
A: 0.994 ± 0.026

Q: And the NP40-soluble protein abundance (concentration: 0.5mM)?
A: 1.01 ± 0.042

Q: With “B5MCX3 and related entries (UniProt Q15019)” as the target, how does the NP40-soluble protein abundance (concentration: 0.1mM) read?
A: 1.01 ± 0.019

Q: What about the NP40-soluble protein abundance (concentration: 0.5mM) of the same target?
A: 1.011 ± 0.0065

Q: What does the source list for “B8ZZN6 and related entries (UniProt P63165)”?
A: NP40-soluble protein abundance (concentration: 0.1mM): 1.01 ± 0.037; NP40-soluble protein abundance (concentration: 0.5mM): 1.06 ± 0.12

Q: With UNC119B (UniProt A6NIH7) as the target, how does the NP40-soluble protein abundance (concentration: 0.1mM) read?
A: 0.985 ± 0.035

Q: And the NP40-soluble protein abundance (concentration: 0.5mM)?
A: 1.009 ± 0.0061
